Laboratory results published in PMC4938514.
These are yes or no findings as the source states them, for the method shown. For some of these results: Binding seen in cells or lysates may run through a third protein. Some results given as binding are weak or reduced against the parent protein; the word gives no strength. Where a sequence is shown, tags or fusion partners need not be part of it. One block for each binder: values may come before it.

The chains behind the UniProt entries cited, without tags or fusion partners. Where a name states a change or a piece, a line headed by the entry shows the natural chain unless it says otherwise. A line that says so, or that is headed by a name, gives the form on record, which may keep a tag or linker. Residues count along the entry.
PlxnA2-FL (full-length Plexin-A2) (P70207, residues 35-1894): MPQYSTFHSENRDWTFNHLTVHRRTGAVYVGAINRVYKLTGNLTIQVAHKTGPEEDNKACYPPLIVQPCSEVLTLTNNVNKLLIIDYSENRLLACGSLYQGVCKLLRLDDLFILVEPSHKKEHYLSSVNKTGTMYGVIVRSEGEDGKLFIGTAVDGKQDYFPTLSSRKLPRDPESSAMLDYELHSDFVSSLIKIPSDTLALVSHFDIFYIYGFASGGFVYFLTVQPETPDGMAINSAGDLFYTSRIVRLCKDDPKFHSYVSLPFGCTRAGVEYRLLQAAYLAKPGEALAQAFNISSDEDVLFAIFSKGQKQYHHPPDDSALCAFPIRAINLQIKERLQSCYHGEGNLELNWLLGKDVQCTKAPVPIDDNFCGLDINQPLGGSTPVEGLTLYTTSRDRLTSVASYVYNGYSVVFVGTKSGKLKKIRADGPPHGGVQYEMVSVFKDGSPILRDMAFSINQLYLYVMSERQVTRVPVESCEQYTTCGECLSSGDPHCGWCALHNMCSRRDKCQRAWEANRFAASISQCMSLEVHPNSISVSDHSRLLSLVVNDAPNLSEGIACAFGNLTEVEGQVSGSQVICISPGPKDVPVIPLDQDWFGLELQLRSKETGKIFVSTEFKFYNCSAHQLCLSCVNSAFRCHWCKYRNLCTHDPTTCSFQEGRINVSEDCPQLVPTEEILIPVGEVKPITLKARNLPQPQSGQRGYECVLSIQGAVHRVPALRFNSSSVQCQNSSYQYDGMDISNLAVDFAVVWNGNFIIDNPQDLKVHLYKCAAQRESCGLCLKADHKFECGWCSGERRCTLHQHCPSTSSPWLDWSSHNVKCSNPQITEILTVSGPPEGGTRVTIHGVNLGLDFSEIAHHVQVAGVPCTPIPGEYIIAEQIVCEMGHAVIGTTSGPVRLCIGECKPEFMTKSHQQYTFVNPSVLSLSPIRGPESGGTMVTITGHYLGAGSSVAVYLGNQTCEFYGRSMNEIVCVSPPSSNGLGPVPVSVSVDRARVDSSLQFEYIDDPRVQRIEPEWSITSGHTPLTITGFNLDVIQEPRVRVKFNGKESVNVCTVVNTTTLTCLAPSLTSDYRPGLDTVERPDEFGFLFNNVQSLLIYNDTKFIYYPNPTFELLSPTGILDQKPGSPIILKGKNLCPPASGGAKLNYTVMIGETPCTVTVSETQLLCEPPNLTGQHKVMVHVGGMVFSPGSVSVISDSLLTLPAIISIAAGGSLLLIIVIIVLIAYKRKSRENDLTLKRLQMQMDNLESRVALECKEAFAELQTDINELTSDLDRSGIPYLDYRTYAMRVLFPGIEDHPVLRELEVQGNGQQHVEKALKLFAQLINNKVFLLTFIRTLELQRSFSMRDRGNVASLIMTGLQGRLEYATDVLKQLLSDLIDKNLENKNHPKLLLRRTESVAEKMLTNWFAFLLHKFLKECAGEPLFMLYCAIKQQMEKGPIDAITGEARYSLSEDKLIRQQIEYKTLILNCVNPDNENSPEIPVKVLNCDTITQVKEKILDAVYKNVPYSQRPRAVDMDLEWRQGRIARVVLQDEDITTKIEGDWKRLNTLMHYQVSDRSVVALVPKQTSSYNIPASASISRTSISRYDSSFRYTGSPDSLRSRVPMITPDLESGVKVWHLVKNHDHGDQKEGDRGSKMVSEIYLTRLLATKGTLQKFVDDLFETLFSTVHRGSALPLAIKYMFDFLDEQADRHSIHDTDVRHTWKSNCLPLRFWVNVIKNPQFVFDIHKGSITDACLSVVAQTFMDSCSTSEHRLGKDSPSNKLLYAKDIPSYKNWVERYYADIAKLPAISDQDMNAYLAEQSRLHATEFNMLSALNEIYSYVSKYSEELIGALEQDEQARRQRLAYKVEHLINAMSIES
PlxnA2-A396E (P70207, form named): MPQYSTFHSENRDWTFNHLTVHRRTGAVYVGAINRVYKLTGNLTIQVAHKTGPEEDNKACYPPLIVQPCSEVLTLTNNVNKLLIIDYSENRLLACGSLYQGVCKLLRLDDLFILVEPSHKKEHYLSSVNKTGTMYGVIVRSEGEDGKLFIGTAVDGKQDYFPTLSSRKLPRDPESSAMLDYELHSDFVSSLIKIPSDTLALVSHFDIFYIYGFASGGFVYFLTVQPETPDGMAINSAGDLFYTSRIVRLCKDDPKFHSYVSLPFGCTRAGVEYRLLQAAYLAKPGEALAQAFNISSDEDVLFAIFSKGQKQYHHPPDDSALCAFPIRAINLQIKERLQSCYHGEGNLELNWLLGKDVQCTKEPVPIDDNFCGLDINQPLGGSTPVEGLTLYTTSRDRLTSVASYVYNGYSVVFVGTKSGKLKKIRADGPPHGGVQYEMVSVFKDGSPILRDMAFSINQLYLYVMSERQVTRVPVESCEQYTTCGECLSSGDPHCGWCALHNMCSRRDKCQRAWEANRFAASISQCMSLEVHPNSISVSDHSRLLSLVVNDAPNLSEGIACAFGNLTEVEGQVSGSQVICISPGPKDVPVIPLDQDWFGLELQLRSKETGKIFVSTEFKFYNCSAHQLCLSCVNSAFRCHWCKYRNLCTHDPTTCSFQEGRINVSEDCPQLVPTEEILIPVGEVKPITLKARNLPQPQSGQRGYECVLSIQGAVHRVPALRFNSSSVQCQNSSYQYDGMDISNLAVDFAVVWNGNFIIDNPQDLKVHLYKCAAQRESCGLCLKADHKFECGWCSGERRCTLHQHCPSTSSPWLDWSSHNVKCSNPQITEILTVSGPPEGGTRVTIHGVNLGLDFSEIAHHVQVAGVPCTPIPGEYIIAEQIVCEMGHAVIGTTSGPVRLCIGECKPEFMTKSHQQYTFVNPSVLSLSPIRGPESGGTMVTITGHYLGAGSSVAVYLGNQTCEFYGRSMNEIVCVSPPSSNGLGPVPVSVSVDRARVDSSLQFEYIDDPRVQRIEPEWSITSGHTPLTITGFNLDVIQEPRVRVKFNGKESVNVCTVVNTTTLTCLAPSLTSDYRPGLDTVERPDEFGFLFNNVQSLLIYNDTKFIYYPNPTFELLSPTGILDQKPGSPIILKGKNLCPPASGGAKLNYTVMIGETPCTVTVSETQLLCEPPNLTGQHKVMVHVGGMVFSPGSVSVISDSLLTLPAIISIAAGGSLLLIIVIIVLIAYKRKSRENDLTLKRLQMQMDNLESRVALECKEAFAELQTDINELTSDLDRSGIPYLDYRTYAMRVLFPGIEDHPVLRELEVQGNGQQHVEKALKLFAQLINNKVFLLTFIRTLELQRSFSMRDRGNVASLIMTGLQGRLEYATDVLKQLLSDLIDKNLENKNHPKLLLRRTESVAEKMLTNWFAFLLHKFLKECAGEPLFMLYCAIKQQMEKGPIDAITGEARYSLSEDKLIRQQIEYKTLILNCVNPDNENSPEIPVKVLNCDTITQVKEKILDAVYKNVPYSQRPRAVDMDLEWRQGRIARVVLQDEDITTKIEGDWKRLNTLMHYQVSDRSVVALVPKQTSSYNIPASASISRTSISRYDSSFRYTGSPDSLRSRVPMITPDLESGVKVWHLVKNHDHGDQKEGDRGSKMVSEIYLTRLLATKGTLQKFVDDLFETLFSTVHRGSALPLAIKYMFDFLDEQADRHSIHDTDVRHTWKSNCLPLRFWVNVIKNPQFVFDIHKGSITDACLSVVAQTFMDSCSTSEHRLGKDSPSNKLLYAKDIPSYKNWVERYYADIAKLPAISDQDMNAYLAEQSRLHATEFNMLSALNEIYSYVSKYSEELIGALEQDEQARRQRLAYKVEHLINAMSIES
UniProt P00520: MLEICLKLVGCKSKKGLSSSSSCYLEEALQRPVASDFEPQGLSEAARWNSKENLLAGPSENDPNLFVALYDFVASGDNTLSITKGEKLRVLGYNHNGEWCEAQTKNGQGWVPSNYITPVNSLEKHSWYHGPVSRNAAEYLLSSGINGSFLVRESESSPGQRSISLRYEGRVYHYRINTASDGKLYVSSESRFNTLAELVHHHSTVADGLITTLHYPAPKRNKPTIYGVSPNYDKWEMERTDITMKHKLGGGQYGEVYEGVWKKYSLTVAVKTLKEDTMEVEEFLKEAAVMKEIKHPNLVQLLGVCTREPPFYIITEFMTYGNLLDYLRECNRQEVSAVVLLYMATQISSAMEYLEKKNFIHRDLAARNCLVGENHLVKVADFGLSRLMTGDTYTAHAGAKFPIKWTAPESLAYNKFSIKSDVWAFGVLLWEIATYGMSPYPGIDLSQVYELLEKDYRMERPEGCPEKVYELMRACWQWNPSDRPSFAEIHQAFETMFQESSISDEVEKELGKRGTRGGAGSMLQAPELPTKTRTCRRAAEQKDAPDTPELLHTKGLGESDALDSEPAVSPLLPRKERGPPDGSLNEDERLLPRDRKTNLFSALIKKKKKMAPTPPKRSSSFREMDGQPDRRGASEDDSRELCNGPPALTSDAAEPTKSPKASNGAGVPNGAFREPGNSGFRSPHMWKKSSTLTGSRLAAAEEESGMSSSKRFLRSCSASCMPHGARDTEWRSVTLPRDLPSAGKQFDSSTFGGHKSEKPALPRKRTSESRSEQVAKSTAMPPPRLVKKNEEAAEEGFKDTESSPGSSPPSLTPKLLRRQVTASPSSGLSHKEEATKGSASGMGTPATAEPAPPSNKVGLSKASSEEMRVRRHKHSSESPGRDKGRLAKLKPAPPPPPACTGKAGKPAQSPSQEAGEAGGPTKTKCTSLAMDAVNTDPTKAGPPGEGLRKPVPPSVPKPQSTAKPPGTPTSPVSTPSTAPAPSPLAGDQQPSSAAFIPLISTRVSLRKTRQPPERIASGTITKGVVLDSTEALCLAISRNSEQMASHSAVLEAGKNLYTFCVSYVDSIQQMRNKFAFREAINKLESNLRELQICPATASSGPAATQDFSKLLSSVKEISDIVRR

Assays:
[1] = target: PlxnA2-FL (full-length Plexin-A2) (UniProt P70207); assay: in situ binding of AP fusion proteins to cells; conditioned media of HEK293 cells with Sema6A-AP or PlxnA2-AP applied to COS-7 cells transfected with combinations of Sema6A and PlxnA2 constructs; bound AP seen in situ
PlxnA2-A396E = PlxnA2-A396E (UniProt P70207); assay: as above
[2] = target: Full-length V5-tagged Abelson kinase (Abl-V5) (UniProt P00520); assay: co-IP; co-transfected COS-7 cells, serum-starved 16h, stimulated with conditioned medium with PlexinA2-EC for 20 min at 37°C (untreated cells alongside; with or without co-transfected PlxnA2), lysed; 2h at 4°C with anti-myc or anti-V5
[3] = target: Full-length V5-tagged Abelson kinase (Abl-V5) (UniProt P00520); assay: co-IP; as a5, but cells not treated with PlxnA2-EC; IP with anti-V5, blot with anti-myc

binding [1]: binds
binding (PlxnA2-A396E): no binding
B1: Sema6A-EC-AP-Fc-(His)6 (extracellular domain of Sema6A fused to alkaline phosphatase) (Fc fusion, UniProt O35464 19-649)
chain: GFPEDSEPISISHGNYTKQYPVFVGHKPGRNTTQRHRLDIQMIMIMNRTLYVAARDHIYTVDIDTSHTEEIYCSKKLTWKSRQADVDTCRMKGKHKDECHNFIKVLLKKNDDTLFVCGTNAFNPSCRNYRVDTLETFGDEFSGMARCPYDAKHANIALFADGKLYSATVTDFLAIDAVIYRSLGDSPTLRTVKHDSKWLKEPYFVQAVDYGDYIYFFFREIAVEYNTMGKVVFPRVAQVCKNDMGGSQRVLEKQWTSFLKARLNCSVPGDSHFYFNILQAVTDVIRINGRDVVLATFSTPYNSIPGSAVCAYDMLDIANVFTGRFKEQKSPDSTWTPVPDERVPKPRPGCCAGSSSLEKYATSNEFPDDTLNFIKTHPLMDEAVPSIINRPWFLRTMVRYRLTKIAVDNAAGPYQNHTVVFLGSEKGIILKFLARIGSSGFLNGSLFLEEMNVYNPEKCSYDGVEDKRIMGMQLDRASGSLYVAFSTCVIKVPLGRCERHGKCKKTCIASRDPYCGWVRESGSCAHLSPLSRLTFEQDIERGNTDGLGDCHNSFVALNGHASSLYPSTTTSDSASRDGYESRGGMLDWNDLLEAPGSTDPLGAVSSHNHQDKKGVIRESYLKSNDQLVPVT

binding [2]: binds
B2: myc-Sema6A-FL (protein, UniProt O35464 19-1031)
chain: GFPEDSEPISISHGNYTKQYPVFVGHKPGRNTTQRHRLDIQMIMIMNRTLYVAARDHIYTVDIDTSHTEEIYCSKKLTWKSRQADVDTCRMKGKHKDECHNFIKVLLKKNDDTLFVCGTNAFNPSCRNYRVDTLETFGDEFSGMARCPYDAKHANIALFADGKLYSATVTDFLAIDAVIYRSLGDSPTLRTVKHDSKWLKEPYFVQAVDYGDYIYFFFREIAVEYNTMGKVVFPRVAQVCKNDMGGSQRVLEKQWTSFLKARLNCSVPGDSHFYFNILQAVTDVIRINGRDVVLATFSTPYNSIPGSAVCAYDMLDIANVFTGRFKEQKSPDSTWTPVPDERVPKPRPGCCAGSSSLEKYATSNEFPDDTLNFIKTHPLMDEAVPSIINRPWFLRTMVRYRLTKIAVDNAAGPYQNHTVVFLGSEKGIILKFLARIGSSGFLNGSLFLEEMNVYNPEKCSYDGVEDKRIMGMQLDRASGSLYVAFSTCVIKVPLGRCERHGKCKKTCIASRDPYCGWVRESGSCAHLSPLSRLTFEQDIERGNTDGLGDCHNSFVALNGHASSLYPSTTTSDSASRDGYESRGGMLDWNDLLEAPGSTDPLGAVSSHNHQDKKGVIRESYLKSNDQLVPVTLLAIAVILAFVMGAVFSGIIVYCVCDHRRKDVAVVQRKEKELTHSRRGSMSSVTKLSGLFGDTQSKDPKPEAILTPLMHNGKLATPSNTAKMLIKADQHHLDLTALPTPESTPTLQQKRKPNRGSREWERNQNIINACTKDMPPMGSPVIPTDLPLRASPSHIPSVVVLPITQQGYQHEYVDQPKMSEVVAQMALEDQAATLEYKTIKEHLSSKSPNHGVNLVENLDSLPPKVPQREASLGPPGTSLSQTGLSKRLEMQHSSSYGLEYKRSYPTNSLTRSHQTTTLKRNNTNSSNSSHLSRNQSFGRGDNPPPAPQRVDSIQVHSSQPSGQAVTVSRQPSLNAYNSLTRSGLKRTPSLKPDVPPKPSFAPLSTSMKPNDACT
binding [3]: no binding (condition: cells not treated with PlxnA2-EC)
